According to paper doi:10.1101/2022.09.10.507283:
No constants are given. Whether binding was seen depends on the method and setting. Binding seen in cells or lysates may run through a third protein. For part of these data: Binding calls can cover weak binding; strength is not graded here.

The chains behind the UniProt entries cited, without tags or fusion partners. Where a name states a change or a piece, a line headed by the entry shows the natural chain unless it says otherwise.
UniProt P61586: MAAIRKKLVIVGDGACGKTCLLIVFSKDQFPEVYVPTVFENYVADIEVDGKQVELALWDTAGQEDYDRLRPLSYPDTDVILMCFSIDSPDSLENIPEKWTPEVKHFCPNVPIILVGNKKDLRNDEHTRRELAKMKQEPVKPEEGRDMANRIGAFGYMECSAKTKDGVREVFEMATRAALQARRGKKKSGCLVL
UniProt Q07157: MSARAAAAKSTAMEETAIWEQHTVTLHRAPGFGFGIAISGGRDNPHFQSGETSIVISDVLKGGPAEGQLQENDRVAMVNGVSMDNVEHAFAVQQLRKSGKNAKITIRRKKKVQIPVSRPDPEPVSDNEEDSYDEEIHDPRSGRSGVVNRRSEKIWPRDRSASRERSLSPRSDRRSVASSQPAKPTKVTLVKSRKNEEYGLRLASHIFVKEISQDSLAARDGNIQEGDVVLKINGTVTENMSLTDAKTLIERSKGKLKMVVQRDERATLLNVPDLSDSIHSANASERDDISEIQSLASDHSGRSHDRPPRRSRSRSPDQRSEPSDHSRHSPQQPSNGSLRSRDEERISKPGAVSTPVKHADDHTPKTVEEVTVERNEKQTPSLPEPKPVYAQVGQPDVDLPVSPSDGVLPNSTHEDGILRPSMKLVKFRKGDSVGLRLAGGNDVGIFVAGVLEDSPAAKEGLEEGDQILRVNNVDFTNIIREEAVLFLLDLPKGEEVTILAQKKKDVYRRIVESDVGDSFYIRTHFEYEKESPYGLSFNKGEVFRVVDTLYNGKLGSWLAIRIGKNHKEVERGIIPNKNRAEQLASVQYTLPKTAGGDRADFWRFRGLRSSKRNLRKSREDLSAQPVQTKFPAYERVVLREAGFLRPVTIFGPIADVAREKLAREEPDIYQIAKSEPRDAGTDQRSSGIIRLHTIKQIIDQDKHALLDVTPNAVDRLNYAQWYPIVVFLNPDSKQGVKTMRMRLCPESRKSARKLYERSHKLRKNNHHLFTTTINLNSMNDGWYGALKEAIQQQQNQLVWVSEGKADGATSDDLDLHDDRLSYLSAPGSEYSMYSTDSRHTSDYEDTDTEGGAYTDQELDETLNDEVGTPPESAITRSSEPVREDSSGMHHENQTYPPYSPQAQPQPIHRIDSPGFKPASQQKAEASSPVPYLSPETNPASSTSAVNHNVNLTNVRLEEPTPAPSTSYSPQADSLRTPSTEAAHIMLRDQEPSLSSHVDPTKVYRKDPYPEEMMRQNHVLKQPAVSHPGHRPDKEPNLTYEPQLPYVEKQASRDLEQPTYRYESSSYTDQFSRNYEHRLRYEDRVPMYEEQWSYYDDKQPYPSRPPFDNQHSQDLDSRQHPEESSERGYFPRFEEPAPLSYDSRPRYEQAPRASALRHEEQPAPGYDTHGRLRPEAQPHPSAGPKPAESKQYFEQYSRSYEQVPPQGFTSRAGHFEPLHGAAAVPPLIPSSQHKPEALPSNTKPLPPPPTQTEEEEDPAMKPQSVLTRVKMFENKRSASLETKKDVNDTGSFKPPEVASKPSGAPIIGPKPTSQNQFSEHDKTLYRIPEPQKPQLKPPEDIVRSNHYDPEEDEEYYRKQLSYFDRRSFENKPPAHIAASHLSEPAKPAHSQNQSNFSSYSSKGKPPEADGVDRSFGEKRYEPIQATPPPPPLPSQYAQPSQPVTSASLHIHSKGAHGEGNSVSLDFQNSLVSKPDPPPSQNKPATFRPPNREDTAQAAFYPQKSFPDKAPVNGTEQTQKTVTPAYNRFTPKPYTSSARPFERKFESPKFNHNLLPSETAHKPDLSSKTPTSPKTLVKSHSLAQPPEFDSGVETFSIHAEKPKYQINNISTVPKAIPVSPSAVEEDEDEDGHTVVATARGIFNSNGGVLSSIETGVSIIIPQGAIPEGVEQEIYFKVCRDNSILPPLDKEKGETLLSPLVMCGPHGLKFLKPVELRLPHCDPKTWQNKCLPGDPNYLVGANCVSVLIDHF

How the values were obtained:
[1] = biological target: GST-RhoA^G17A (nucleotide-free RhoA mutant) (UniProt P61586); test: pull-down
[2] = biological target: T1, VE-cadherin (endogenous, HUVEC) (human (endogenous in HUVEC)) (UniProt P33151); test: co-IP
T1 sequence: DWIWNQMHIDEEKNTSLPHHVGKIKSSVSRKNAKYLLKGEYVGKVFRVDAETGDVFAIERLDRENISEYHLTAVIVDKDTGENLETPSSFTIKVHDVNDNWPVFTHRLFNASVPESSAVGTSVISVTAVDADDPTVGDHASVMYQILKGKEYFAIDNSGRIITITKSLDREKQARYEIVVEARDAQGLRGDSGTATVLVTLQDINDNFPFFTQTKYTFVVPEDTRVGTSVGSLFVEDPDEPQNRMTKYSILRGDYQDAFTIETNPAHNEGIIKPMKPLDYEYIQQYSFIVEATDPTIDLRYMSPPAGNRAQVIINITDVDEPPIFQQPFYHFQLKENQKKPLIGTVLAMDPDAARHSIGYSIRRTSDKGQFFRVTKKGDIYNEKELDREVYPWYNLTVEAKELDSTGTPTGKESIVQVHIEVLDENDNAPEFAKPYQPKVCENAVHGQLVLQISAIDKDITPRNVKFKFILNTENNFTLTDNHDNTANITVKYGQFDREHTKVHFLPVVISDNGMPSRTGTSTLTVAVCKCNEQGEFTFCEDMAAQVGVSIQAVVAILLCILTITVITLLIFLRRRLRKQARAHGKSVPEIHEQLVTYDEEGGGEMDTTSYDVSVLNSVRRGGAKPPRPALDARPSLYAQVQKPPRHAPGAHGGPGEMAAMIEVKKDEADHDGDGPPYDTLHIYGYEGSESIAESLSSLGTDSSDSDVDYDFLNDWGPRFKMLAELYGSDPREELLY

[3] = biological target: ZO-1 (endogenous, HUVEC) (human (endogenous in HUVEC)) (UniProt Q07157); test: co-IP

binding [1]: binds | binding [2]: no binding | binding [3]: binds
Substance: ARHGEF18 (endogenous, HUVEC) (from UniProt Q6ZSZ5-4)
